Experimental data taken from paper PMC8322090.
Results are given in words; binding and its absence hold for the method and conditions named. In cells and extracts the contact can be indirect. These calls come from enrichment with a bait or labelling near it, and not all partners need be listed.

Chains of the proteins cited; added tags and fusions are not shown.
UniProt Q13309: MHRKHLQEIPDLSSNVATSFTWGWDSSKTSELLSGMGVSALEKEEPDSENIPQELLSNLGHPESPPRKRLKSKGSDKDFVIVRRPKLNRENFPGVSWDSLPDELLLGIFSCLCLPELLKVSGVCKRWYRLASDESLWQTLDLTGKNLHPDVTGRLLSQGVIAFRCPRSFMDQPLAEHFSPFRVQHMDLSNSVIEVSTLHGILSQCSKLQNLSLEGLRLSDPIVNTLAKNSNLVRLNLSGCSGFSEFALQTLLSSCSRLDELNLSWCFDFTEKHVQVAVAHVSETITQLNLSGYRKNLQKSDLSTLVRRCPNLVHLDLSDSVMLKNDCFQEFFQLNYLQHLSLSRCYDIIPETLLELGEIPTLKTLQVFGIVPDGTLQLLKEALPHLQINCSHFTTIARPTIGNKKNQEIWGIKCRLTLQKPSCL
UniProt Q9UKV5: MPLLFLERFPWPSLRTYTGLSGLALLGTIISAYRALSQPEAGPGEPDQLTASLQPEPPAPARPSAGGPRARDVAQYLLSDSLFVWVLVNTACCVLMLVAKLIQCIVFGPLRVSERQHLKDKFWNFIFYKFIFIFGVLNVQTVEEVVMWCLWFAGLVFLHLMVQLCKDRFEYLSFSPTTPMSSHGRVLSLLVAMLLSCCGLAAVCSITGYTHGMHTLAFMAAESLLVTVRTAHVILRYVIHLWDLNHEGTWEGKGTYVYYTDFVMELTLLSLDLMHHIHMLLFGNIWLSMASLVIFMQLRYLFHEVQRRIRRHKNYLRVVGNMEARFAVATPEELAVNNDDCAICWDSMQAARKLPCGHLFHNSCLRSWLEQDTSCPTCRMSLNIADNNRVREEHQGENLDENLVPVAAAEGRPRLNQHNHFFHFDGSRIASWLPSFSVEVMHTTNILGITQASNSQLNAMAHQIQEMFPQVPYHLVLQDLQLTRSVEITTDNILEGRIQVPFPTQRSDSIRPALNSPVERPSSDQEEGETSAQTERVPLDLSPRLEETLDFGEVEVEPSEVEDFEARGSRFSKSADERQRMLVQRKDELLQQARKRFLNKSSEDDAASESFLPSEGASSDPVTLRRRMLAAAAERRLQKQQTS
UniProt Q99496: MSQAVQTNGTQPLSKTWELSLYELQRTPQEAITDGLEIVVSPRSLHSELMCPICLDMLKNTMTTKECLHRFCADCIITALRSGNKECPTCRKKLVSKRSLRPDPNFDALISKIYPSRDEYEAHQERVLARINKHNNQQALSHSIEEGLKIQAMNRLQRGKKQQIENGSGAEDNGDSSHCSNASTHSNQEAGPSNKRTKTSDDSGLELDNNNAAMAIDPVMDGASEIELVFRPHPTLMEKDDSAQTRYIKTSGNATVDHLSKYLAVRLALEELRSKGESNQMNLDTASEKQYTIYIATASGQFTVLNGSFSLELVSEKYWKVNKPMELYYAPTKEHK
UniProt O95071: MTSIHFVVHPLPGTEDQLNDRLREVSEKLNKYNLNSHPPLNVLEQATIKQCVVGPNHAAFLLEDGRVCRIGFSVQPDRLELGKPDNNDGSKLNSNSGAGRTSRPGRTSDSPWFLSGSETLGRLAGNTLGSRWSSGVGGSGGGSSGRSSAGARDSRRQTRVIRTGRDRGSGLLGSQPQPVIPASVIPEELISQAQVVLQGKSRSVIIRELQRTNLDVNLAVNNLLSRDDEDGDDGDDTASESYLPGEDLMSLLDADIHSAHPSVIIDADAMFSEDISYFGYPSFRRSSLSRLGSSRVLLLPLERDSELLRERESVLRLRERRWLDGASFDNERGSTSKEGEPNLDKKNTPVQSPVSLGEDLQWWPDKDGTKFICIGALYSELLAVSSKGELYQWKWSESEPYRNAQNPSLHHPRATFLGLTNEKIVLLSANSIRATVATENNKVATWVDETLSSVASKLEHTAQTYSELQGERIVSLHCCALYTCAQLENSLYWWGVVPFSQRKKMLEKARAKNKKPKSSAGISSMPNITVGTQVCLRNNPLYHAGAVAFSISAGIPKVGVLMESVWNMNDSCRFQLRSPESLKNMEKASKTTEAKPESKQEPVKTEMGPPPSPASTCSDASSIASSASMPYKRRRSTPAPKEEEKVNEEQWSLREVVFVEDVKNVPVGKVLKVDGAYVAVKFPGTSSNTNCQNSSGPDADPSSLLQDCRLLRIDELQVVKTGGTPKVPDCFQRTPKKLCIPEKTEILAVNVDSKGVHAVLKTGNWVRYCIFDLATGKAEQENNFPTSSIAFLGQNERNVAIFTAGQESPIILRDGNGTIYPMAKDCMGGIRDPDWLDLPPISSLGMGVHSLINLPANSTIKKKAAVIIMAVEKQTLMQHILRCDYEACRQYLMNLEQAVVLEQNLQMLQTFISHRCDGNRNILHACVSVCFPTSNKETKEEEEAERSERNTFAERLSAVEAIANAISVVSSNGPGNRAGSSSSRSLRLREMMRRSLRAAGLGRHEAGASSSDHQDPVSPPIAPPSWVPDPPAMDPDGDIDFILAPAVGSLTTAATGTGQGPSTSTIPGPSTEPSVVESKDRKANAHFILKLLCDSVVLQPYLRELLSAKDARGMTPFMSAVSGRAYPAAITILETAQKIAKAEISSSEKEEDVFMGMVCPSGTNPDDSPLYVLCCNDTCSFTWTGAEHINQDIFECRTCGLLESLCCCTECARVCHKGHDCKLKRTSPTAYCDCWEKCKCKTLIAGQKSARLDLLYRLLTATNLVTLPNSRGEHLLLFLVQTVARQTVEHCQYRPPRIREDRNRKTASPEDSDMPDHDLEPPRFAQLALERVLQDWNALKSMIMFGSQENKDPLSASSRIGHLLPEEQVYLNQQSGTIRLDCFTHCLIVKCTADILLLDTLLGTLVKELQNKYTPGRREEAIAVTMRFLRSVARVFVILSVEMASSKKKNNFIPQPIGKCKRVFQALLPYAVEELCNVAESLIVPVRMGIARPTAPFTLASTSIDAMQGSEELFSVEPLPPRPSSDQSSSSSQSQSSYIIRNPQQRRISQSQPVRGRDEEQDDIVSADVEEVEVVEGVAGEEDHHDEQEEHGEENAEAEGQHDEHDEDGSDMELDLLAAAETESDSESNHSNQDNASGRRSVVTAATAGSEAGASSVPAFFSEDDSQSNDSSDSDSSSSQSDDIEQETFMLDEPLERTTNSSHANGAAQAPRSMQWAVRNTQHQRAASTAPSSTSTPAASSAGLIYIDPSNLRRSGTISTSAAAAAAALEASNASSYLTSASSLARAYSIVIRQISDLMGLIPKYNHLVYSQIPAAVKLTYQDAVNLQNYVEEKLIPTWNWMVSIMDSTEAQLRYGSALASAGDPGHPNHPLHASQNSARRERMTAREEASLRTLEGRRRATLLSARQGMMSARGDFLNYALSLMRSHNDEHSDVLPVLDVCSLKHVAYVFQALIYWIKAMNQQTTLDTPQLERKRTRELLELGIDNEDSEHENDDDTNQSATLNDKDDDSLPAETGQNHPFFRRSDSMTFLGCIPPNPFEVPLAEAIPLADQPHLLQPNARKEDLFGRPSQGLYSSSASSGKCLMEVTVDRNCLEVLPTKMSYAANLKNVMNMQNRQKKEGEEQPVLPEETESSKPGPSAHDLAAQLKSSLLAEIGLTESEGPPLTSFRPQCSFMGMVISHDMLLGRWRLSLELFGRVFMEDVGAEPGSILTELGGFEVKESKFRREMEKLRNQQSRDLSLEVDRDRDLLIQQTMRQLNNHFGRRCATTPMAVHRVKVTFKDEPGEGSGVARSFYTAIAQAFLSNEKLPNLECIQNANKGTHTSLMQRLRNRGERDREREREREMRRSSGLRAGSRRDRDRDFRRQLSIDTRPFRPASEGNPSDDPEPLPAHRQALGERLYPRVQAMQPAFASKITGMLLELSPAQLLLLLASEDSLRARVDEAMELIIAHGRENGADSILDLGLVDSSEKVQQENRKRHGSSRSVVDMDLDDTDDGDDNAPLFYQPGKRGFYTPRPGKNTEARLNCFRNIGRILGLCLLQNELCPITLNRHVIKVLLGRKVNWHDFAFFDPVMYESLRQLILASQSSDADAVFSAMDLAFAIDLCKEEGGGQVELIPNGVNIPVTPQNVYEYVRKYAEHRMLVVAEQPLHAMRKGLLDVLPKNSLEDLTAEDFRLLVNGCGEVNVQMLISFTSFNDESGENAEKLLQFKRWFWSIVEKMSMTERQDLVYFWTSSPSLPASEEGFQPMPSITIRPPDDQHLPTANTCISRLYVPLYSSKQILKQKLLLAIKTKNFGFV
UniProt Q06587: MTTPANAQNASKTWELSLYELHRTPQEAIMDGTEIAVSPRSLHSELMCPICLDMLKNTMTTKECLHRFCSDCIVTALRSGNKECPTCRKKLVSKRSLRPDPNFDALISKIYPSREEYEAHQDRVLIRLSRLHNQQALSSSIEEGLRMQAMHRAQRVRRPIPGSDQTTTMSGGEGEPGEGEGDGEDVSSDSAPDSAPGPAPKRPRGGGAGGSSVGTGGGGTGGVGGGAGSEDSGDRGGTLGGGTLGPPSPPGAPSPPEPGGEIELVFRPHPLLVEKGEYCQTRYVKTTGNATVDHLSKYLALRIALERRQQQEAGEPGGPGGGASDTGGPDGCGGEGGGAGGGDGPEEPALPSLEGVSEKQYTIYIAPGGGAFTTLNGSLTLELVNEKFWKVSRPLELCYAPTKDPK

Biological target: SKP2, bait of the proteomic analysis of SKP2-interacting proteins (UniProt Q13309)
Experiment: affinity purification with mass spectrometry; proteomic analysis of SKP2-interacting proteins after STA-9090 and MG132 treatment

Row | Molecule | binding
1 | AMFR (from UniProt Q9UKV5 1-643) | binds
2 | RNF2 (from UniProt Q99496 1-336) | binds
3 | UBR5 (from UniProt O95071 1-2799) | binds

Further lines, results first:

Row | binding | Molecule
4 | binds | RING1 (from UniProt Q06587 1-406)
5 | binds | RNF219 (protein, UniProt Q5W0B1 1-726) MAQTVQNVTLSLTLPITCHICLGKVRQPVICINNHVFCSICIDLWLKNNSQCPACRVPITPENPCKEIIGGTSESEPMLSHTVRKHLRKTRLELLHKEYEDEIDCLQKEVEELKSKNLSLESQIKTILDPLTLVQGNQNEDKHLVTDNPSKINPETVAEWKKKLRTANEIYEKVKDDVDKLKEANKKLKLENGGLVRENLRLKAEVDNRSPQKFGRFAVAALQSKVEQYERETNRLKKALERSDKYIEELESQVAQLKNSSEEKEAMNSICQTALSADGKGSKGSEEDVVSKNQGDSARKQPGSSTSSSSHLAKPSSSRLCDTSSARQESTSKADLNCSKNKDLYQEQVEVMLDVTDTSMDTYLEREWGNKPSDCVPYKDEELYDLPAPCTPLSLSCLQLSTPENRESSVVQAGGSKKHSNHLRKLVFDDFCDSSNVSNKDSSEDDISRSENEKKSECFSSPKTGFWDCCSTSYAQNLDFESSEGNTIANSVGEISSKLSEKSGLCLSKRLNSIRSFEMNRTRTSSEASMDAAYLDKISELDSMMSESDNSKSPCNNGFKSLDLDGLSKSSQGSEFLEEPDKLEEKTELNLSKGSLTNDQLENGSEWKPTSFFLLSPSDQEMNEDFSLHSSSCPVTNEIKPPSCLFQTEFSQGILLSSSHRLFEDQRFGSSLFKMSSEMHSLHNHLQSPWSTSFVPEKRNKNVNQSTKRKIQSSLSSASPSKATKS
